Assay results: publication PMC11425230
These are yes or no findings as the source states them, for the method shown. Binding seen in cells or lysates may run through a third protein. Some results given as binding are weak or reduced against the parent protein; the word gives no strength.

Protein sequences, listed by entry. Tags and fused reporters are not part of them. Residues count along the entry.
UniProt Q08345, residues 19-913: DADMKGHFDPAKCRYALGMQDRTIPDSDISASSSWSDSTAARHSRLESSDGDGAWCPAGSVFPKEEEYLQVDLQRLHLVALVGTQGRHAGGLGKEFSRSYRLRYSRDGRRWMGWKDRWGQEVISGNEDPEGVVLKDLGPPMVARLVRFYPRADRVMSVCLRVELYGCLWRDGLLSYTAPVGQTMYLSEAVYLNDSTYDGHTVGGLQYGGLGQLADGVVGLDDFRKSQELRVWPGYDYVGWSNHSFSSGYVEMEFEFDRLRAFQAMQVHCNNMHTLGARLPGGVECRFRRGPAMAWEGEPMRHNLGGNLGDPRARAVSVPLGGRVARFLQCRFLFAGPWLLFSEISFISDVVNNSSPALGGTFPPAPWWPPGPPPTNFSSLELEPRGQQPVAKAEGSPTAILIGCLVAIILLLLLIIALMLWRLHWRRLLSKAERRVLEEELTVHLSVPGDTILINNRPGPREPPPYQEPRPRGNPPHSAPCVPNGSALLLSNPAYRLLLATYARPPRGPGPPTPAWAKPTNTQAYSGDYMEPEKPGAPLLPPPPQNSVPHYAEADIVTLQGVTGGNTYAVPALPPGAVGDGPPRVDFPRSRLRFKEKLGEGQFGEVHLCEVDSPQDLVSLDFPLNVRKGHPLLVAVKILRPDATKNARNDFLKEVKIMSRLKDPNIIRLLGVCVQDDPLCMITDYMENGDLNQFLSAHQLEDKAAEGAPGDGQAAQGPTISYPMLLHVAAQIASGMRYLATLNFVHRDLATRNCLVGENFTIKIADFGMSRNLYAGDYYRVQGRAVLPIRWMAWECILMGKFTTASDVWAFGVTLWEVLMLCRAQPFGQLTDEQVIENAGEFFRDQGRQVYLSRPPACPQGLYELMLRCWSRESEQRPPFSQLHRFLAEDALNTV
UniProt Q16665: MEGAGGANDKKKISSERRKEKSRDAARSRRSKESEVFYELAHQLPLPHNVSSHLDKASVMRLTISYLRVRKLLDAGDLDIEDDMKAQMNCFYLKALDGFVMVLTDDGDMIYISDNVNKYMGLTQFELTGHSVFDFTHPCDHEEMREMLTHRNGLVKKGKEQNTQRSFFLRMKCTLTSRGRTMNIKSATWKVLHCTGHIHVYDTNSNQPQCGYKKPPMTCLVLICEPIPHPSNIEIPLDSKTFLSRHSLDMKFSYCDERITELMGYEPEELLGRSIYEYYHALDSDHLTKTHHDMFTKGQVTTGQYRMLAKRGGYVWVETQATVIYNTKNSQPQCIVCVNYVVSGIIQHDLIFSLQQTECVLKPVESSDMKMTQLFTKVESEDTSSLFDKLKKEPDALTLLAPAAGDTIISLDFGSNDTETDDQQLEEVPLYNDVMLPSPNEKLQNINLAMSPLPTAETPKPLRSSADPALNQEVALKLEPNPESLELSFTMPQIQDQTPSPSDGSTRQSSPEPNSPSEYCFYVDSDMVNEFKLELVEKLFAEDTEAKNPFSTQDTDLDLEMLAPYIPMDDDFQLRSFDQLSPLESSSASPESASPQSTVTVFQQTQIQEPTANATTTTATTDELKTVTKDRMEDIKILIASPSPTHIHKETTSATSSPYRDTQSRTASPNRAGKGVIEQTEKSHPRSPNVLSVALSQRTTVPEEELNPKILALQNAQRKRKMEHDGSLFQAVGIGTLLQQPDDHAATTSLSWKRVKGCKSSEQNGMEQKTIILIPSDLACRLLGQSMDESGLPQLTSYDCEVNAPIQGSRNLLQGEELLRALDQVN

Legend:
[1] = biological target: HA-tagged DDR1 (pEZ-M07-HA-DDR1) (UniProt Q08345); test: co-IP; lysates of HEK293T cells co-transfected with DDR1-HA and Flag-tagged HIF-1α or its deletion mutants; anti-HA or anti-Flag antibody, Protein A/G magnetic beads at 4 °C; western blot
[2] = biological target: discoidin domain receptor 1 (DDR1), full-length cDNA in the lentiviral vector pEZ-Lv201 (UniProt Q08345); test: co-IP; lysates of HGC27 and AGS cells transduced with the DDR1-expressing or control vector; IP lysis buffer; anti-DDR1 or anti-HIF-1α antibody overnight, Protein A/G magnetic beads at 4 °C for 2 h; western blot
[3] = biological target: hypoxia-inducible factor-1α (HIF-1α), endogenous in gastric cancer cells (human (endogenous in HGC27 and AGS)) (UniProt Q16665); test: as above

In the case of “Flag-tagged HIF-1α, full length (pEZ-M14-Flag-HIF-1α) (from UniProt Q16665 1-826)”, the binding [1] is reported as “binds”.
“hypoxia-inducible factor-1α (HIF-1α), endogenous in gastric cancer cells (from UniProt Q16665 1-826)” was tested, and the binding [2] was “binds”.
“discoidin domain receptor 1 (DDR1), full-length cDNA in the lentiviral vector pEZ-Lv201 (from UniProt Q08345 19-913)” was tested, and the binding [3] was “binds”.
